{
  "source": "PubChem BioAssay AID1347076",
  "about": "(National Center for Advancing Translational Sciences (NCATS), 2019)",
  "note": "The whole screen tested about 400,000 compounds, of which about 13,000 (3.2%) were called active. The inconclusive results got no clear call from the source; some entries with a clear call stand among them for comparison. Calls follow the shape of the dose curve; as a rule, active = well fitted cell-killing curve with a large enough effect; inconclusive = small, poorly fitted or top-dose-only effect, or effect the other way; inactive = flat fitted curve, though single readings scatter. Potencies beside an inconclusive call are fits to weak or partial responses and may not hold up. The source holds several records for some structures; these can differ, active in one and inactive in another. Potency is read from the fitted curve at half-maximal effect.",
  "data": [
    {"test": "qHTS assay for MDR1-selective chemotherapeutics: Primary screen using the drug-selected MDR subline cells KB-V1; also: nearly all actives have a fitted effect of over 60% in size", "settings": "KB-V1 MDR cells viability, CellTiter-Glo, 72 h; series mostly up to 46.1 µM", "outline": "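KB-V1, DMEM (no phenol red) + 10% FBS; cpd pin-transferred, titration series; 72 h, 37 degrees C; CellTiter-Glo, luminescence. Data normalized, curve-fit.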", "values": [
      {"compound": "Cc1ccccc1N1CCN(S(=O)(=O)c2ccccc2)CC1", "Potency": "active: 20.6 µM"},
      {"compound": "O=C(/C=C/c1ccccc1)Nc1ccc(S(=O)(=O)N2CCOCC2)cc1", "Potency": "inconclusive: 18.4 µM [cytotoxic, single point]"},
      {"compound": "COc1cc(-c2cnc3c(NC=O)cc(-c4cccnc4)cn23)cc(OC)c1OC", "Potency": "active: 13 µM"},
      {"compound": "COc1ccc(C(=O)c2ccc3oc(-c4ccc(OC)cc4)c(-c4ccc(O)cc4)c3c2)cc1", "Potency": "inconclusive: 20.6 µM [cytotoxic, single point]"},
      {"compound": "CCN(CC)CCCN(C(=O)c1ccccc1F)c1nc(-c2ccc(OC)cc2)cs1", "Potency": "inconclusive: 29.1 µM [rising, single point]"},
      {"compound": "CCOC(=O)CSC1=Nc2ccccc2C2=NC(CCC(=O)NCc3ccc(OC)cc3)C(=O)N12", "note": "(stereo unspecified)", "Potency": "inconclusive: 20.6 µM [rising, single point]"},
      {"compound": "Cc1ccc(-n2c(=O)c3sccc3n(Cc3cc(=O)n4cc(Cl)ccc4n3)c2=O)cc1F", "Potency": "inconclusive: 1.64 µM [cytotoxic, full curve]"},
      {"compound": "COc1ccc(C2CC(c3ccc(Br)cc3)=NN2C(=S)Nc2ccccc2)cc1", "note": "(stereo unspecified)", "Potency": "inconclusive: 29.1 µM [rising, single point]"},
      {"compound": "CC(C)=CC(=O)N1CCC(Oc2cccc(C(=O)NCc3ccccn3)c2)CC1", "Potency": "inconclusive: 10.3 µM [cytotoxic, partial curve]"},
      {"compound": "CC1(C)C(c2cccs2)=[N+]([O-])C2(CCCCC/C2=N\\NC(N)=S)N1O", "note": "(stereo unspecified)", "Potency": "inconclusive: 0.0411 µM [rising, full curve, poor fit]"},
      {"compound": "CSCCC(NC(=O)c1ccccc1)C(=O)N1CCN(Cc2ccc(Cl)cc2)CC1", "note": "(stereo unspecified)", "Potency": "active: 18.4 µM"},
      {"compound": "CN(C(=O)CSc1cc(C(=O)c2nccn2C)c2ccccc2n1)c1ccccc1", "Potency": "inconclusive: 25.9 µM [cytotoxic, single point]"},
      {"compound": "O=C1NC[C@H](CCCCN2CCN(CCC3CCCCC3)C(=O)C2=O)N(CCc2ccccc2)C1=O", "Potency": "inactive"},
      {"compound": "COc1ccc(C)cc1NS(=O)(=O)c1ccc2c3c(cccc13)C(=O)N2", "Potency": "inconclusive: 20.6 µM [cytotoxic, single point]"},
      {"compound": "Cc1ccc(NC(=O)CN2C(=O)C3CC=C(Cl)CC3C2=O)cc1", "note": "(stereo unspecified)", "Potency": "inactive"},
      {"compound": "COc1ccc(F)cc1CN1CCN(c2ncnc3scc(-c4ccccc4)c23)CC1", "Potency": "inconclusive: 9.2 µM [cytotoxic, partial curve]"},
      {"compound": "COc1cc(S(=O)(=O)N(Cc2ccccc2)Cc2ccccn2)ccc1-n1cnnn1", "Potency": "inconclusive: 7.31 µM [cytotoxic, partial curve]"},
      {"compound": "Cc1cc(NC(=O)C(C)Oc2ccccc2)no1", "note": "(stereo unspecified)", "Potency": "inactive"},
      {"compound": "O=C(Nc1nnc(-c2ccccc2Cl)o1)c1ccco1", "Potency": "active: 16.4 µM"},
      {"compound": "CN(CC(=O)NC1CCN(Cc2ccccc2)CC1)S(=O)(=O)c1ccc(Br)s1", "Potency": "inconclusive: 4.11 µM [cytotoxic, partial curve]"},
      {"compound": "Cc1cc2nc(C3CCCCC3)c(Cc3cccc(Cl)c3)n2c(C)c1Br", "Potency": "inactive"},
      {"compound": "COc1ccc(-n2c(=S)[nH]c3c(oc4ccccc43)c2=O)cc1", "Potency": "inconclusive: 13 µM [cytotoxic, partial curve]"},
      {"compound": "Cc1cc(F)ccc1S(=O)(=O)Nc1ncnc2sccc12", "Potency": "inactive"},
      {"compound": "N#Cc1c(N2CCCCC2)nc(N)c2c(N)nc3c(c12)CC(CCl)O3", "note": "(stereo unspecified)", "Potency": "inconclusive: 1.46 µM [cytotoxic, full curve]"},
      {"compound": "Nc1ccn([C@@H]2O[C@H](C(=O)NCc3ccc4c(c3)OCO4)[C@@H](O)[C@H]2O)c(=O)n1", "Potency": "inactive"},
      {"compound": "O=Cc1c(Sc2ccccc2)nc2ccccn2c1=O", "Potency": "inconclusive: 20.6 µM [cytotoxic, partial curve, poor fit]"},
      {"compound": "Cc1ccc2c(Cl)c(Cc3ccccc3)c(=S)[nH]c2n1", "Potency": "inactive"},
      {"compound": "CCCc1cc(N2CCN(c3cccc(C)c3C)CC2)n2cnnc2n1", "Potency": "inconclusive: 18.4 µM [cytotoxic, single point]"},
      {"compound": "CCn1nc(C)c(/C=N/NC(=S)Nc2ccc(Cl)cc2Cl)c1C", "Potency": "inconclusive: 10.3 µM [cytotoxic, partial curve]"},
      {"compound": "CCN(C(=O)COC(=O)c1cccc2ccccc12)c1c(N)n(Cc2ccccc2)c(=O)[nH]c1=O", "Potency": "inactive"},
      {"compound": "OCOCCCn1c(C2CCCN2c2nc(-c3ccc(F)cc3)cs2)nc2cc(Cl)c(N3CCCCC3)cc21", "note": "(stereo unspecified)", "Potency": "inconclusive: 20.6 µM [cytotoxic, single point]"},
      {"compound": "O=C(CN1CCN(S(=O)(=O)c2cc(Br)ccc2Br)CC1)NCc1ccccc1Cl", "Potency": "active: 3.66 µM"},
      {"compound": "O=C1COc2ccc(-c3cc(-c4ccccc4)c4c(n3)-c3ccccc3OC4)cc2N1", "Potency": "inactive"},
      {"compound": "C[n+]1c(-c2ccccc2)cc2c(=Cc3ccc([N+](=O)[O-])cc3)c3ccccc3n21", "Potency": "inconclusive: 16.4 µM [cytotoxic, single point]"},
      {"compound": "CC(/C=C/c1ccccc1F)=N\\NC(=O)C(C)C", "Potency": "inconclusive: 23.1 µM [cytotoxic, single point]"},
      {"compound": "Cc1ccc(C(=O)N2CCN(c3ccccc3)CC2)cc1S(=O)(=O)N1CCOCC1", "Potency": "inconclusive: 7.31 µM [cytotoxic, partial curve]"},
      {"compound": "CCNC(=S)Nc1scc(-c2ccccc2)c1C(=O)OCC", "Potency": "inconclusive: 18.4 µM [cytotoxic, partial curve, poor fit]"},
      {"compound": "O=C(COC(=O)C1CC2CCCC(C1)C2=O)NNC(=O)c1ccccc1F", "note": "(stereo unspecified)", "Potency": "inactive"},
      {"compound": "CN1CCN(CCCN2c3ccccc3Sc3ccc(S(=O)(=O)N(C)C)cc32)CC1", "Potency": "active: 20.6 µM"},
      {"compound": "Cc1ccc(CNC(=O)[C@]2(C)CCC[C@@]3(C)C4CC[C@@]5(C)C[C@]4(CCC32)CC5=O)cc1", "note": "(stereo partly specified)", "Potency": "inconclusive: 16.4 µM [cytotoxic, partial curve, poor fit]"},
      {"compound": "CCC(C)Sc1nc2c(c(=O)[nH]c(=O)n2C)n1CC(O)COc1ccccc1C", "note": "(stereo unspecified)", "Potency": "active: 18.4 µM"},
      {"compound": "CC(CCc1ccccn1)C(=O)C(C)CCc1ccccn1", "note": "(stereo unspecified)", "Potency": "inconclusive: 0.0073 µM [cytotoxic, full curve]"},
      {"compound": "Cc1ccc(-c2noc(-c3ccccc3NC(=O)C3CC(=O)N(c4ccc(C)cc4)C3)n2)cc1", "note": "(stereo unspecified)", "Potency": "inactive"},
      {"compound": "O=C(/C=C/c1ccco1)N1CCN(S(=O)(=O)/C=C/c2ccccc2)CC1", "Potency": "inconclusive: 18.4 µM [cytotoxic, partial curve]"},
      {"compound": "Cc1ccc(S(=O)(=O)CCC(=O)OCc2nnc(-c3ccc([N+](=O)[O-])cc3)o2)cc1", "Potency": "inactive"},
      {"compound": "c1ccc2c(N3CCCCC3)nc(N3CCCCC3)nc2c1", "Potency": "inconclusive: 29.1 µM [cytotoxic, single point]"},
      {"compound": "CCC(=O)n1nc(NCc2ccc(OC)c(OC)c2)nc1NCc1ccc(OC)c(OC)c1", "Potency": "inconclusive: 18.4 µM [cytotoxic, partial curve]"},
      {"compound": "CC1(C)N=C(SCC(=O)Nc2ccc(Cl)cc2)C(c2ccc(Cl)cc2)=N1", "Potency": "inconclusive: 23.1 µM [cytotoxic, single point]"},
      {"compound": "CSc1ccccc1OCc1cc(C(=O)N(C)Cc2ccc3nsnc3c2)no1", "Potency": "inconclusive: 14.6 µM [cytotoxic, partial curve]"},
      {"compound": "Cn1c(=O)c2c(nc(CN3CCN(c4ccccc4)CC3)n2Cc2c(F)cccc2Cl)n(C)c1=O", "Potency": "inconclusive: 10.3 µM [cytotoxic, partial curve, poor fit]"},
      {"compound": "O=C(NCc1cccnc1)c1cc(Sc2cccc(Cl)c2)nc2ccccc12", "Potency": "active: 16.4 µM"},
      {"compound": "CC1=C(C(=O)NCc2ccccc2C)C2(CCCCCC2)OC1=O", "Potency": "inactive"},
      {"compound": "CN(C)c1ccc2c(c1)OC(N)=C(C#N)C2c1cccc(F)c1", "note": "(stereo unspecified)", "Potency": "inconclusive: 0.0052 µM [cytotoxic, full curve, poor fit]"},
      {"compound": "CCCC(=O)NC(c1ccc(OC)cc1)c1c(O)ccc2ccccc12", "note": "(stereo unspecified)", "Potency": "inconclusive: 29.1 µM [cytotoxic, single point]"},
      {"compound": "COc1ccc(OC)c(NC(=O)c2cnc(N3CCCCC3)c3ccccc23)c1", "Potency": "inactive"},
      {"compound": "CCOC(=O)c1c(NC(=O)CCCOc2ccc(C(C)(C)C)cc2)sc2c1CCCC2", "Potency": "inactive"},
      {"compound": "CCc1c(-c2ccccc2)ncn1Cc1cccc(-c2ccccc2)c1", "Potency": "inconclusive: 18.4 µM [cytotoxic, single point]"},
      {"compound": "CCN(C(=O)c1cc2c(=O)n3cccc(C)c3nc2s1)C1CCCCC1", "Potency": "inconclusive: 9.2 µM [cytotoxic, partial curve]"},
      {"compound": "CNC(=S)N(CCc1c(C)[nH]c2ccc(F)cc12)Cc1ccco1", "Potency": "inconclusive: 14.6 µM [cytotoxic, partial curve, poor fit]"},
      {"compound": "CN(c1nc(-c2ccccc2)cs1)C1CCS(=O)(=O)C1", "note": "(stereo unspecified)", "Potency": "inconclusive: 20.6 µM [cytotoxic, partial curve, poor fit]"},
      {"compound": "Cc1nn(C)c(C)c1NC(=O)CSc1nc(-c2ccccc2F)nc2c1cnn2-c1ccccc1", "Potency": "inconclusive: 29.1 µM [rising, partial curve, poor fit]"},
      {"compound": "COc1ccccc1CCC(=O)Nc1cccc(S(=O)(=O)N2CCCCCC2)c1", "Potency": "inconclusive: 8.2 µM [cytotoxic, partial curve]"},
      {"compound": "CCOc1ccccc1NC(=S)N1CCC(NC(=O)c2ccco2)CC1", "Potency": "inconclusive: 23.1 µM [cytotoxic, partial curve, poor fit]"},
      {"compound": "COc1cc(OC)cc(C(=O)Nn2cc(C(=O)Nc3ccc(F)cc3F)c3ccccc3c2=O)c1", "Potency": "inconclusive: 11.6 µM [cytotoxic, partial curve]"},
      {"compound": "COc1ccccc1NC(=O)c1ccc(-c2nn(C)c(=O)c3ccccc23)cc1", "Potency": "inconclusive: 9.2 µM [cytotoxic, partial curve]"},
      {"compound": "COc1cc2c(cc1OC)CN(C(=O)c1ccc(N3CCCC3)c([N+](=O)[O-])c1)CC2", "Potency": "inconclusive: 7.31 µM [cytotoxic, partial curve]"}
    ]}
  ]
}
